The reference is the same well before dosing, and untreated signal decays as well.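 Fibroblast labels denote human fibroblasts, mainly primary ones from uterus (C12385, HUF), lung (H6013), bone (Hs27A), adrenal (HADF) and skin (WS1), plus mammary HMF and breast cancer-associated Hs343T. Cancer cells are basal-like or mesenchymal-like triple-negative breast cancer lines. A hit is a response shift exceeding 3x replicate standard deviation. The tissue of the other fibroblasts is not given here.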
Test system: Hs578T
Assay: relative JC-1 red fluorescence (viability) vs pre-drug, coculture with fibroblast (fraction); higher = more viable cancer cells
Procedure: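 JC-1 labelled TNBC cells cocultured 1:1 (1,500 cells each) with CellTrace Violet stained primary or stromal fibroblasts in 384-well plates in FluoroBrite medium, treated with one of 42 anticancer drugs at 0.1, 1, 10 or 100 uM. JC-1 red fluorescence (mitochondrial integrity in cancer cells only) was read by plate reader every 8 h for 72 h. Values are normalised to each well's pre-drug value. The stock of one drug was tenfold lower, so its dose labels may be too high.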

COc1cc([C@@H]2c3cc4c(cc3[C@@H](O[C@@H]3O[C@@H]5CO[C@@H](C)O[C@H]5[C@H](O)[C@H]3O)[C@H]3COC(=O)[C@H]23)OCO4)cc(OC)c1O [Etoposide]
relative JC-1 red fluorescence
Conditions | 8 h | 16 h | 24 h | 32 h | 40 h | 48 h | 56 h | 64 h | 72 h
10 µM | 0.869 | 0.7882 | 0.744 | 0.703 | 0.639 | 0.602 | 0.585 | 0.559 | 0.564
100 µM | 0.896 | 0.838 | 0.815 | 0.765 | 0.687 | 0.636 | 0.62 | 0.587 | 0.573

relative JC-1 red fluorescence
Conditions | 8 h | 16 h | 24 h | 32 h | 40 h | 48 h | 56 h | 64 h | 72 h
10 µM, coculture fibroblast: C12385 | 0.824 | 0.695 | 0.645 | 0.557 | 0.501 | 0.465 | 0.432 | 0.422 | 0.415
10 µM, coculture fibroblast: H6013 | 0.838 | 0.785 | 0.735 | 0.699 | 0.658 | 0.635 | 0.615 | 0.604 | 0.572
10 µM, coculture fibroblast: H6019 | 0.801 | 0.721 | 0.67 | 0.572 | 0.525 | 0.495 | 0.463 | 0.444 | 0.43
10 µM, coculture fibroblast: H6076 | 0.9267 | 0.8546 | 0.7956 | 0.74611 | 0.68345 | 0.6635 | 0.624 | 0.601 | 0.583
10 µM, coculture fibroblast: H6231 | 0.8988 | 0.812 | 0.736 | 0.6877 | 0.6143 | 0.585 | 0.5365 | 0.52 | 0.502
10 µM, coculture fibroblast: HADF | 0.888 | 0.846 | 0.783 | 0.738 | 0.7029 | 0.684 | 0.655 | 0.64 | 0.614
10 µM, coculture fibroblast: HCFa | 0.835 | 0.755 | 0.6779 | 0.6166 | 0.558 | 0.535 | 0.503 | 0.496 | 0.464
10 µM, coculture fibroblast: HCPF | 0.892 | 0.7995 | 0.74726 | 0.712 | 0.645 | 0.62 | 0.59 | 0.552 | 0.524
10 µM, coculture fibroblast: HHSteC | 0.854 | 0.788 | 0.719 | 0.6592 | 0.61 | 0.582 | 0.552 | 0.533 | 0.51
10 µM, coculture fibroblast: HMF | 0.917 | 0.834 | 0.772 | 0.7243 | 0.663 | 0.6384 | 0.596 | 0.573 | 0.549
10 µM, coculture fibroblast: HPFa | 0.9165 | 0.869 | 0.835 | 0.801 | 0.777 | 0.763 | 0.729 | 0.72 | 0.69
10 µM, coculture fibroblast: HUF | 0.832 | 0.706 | 0.664 | 0.557 | 0.492 | 0.4592 | 0.43 | 0.417 | 0.409
10 µM, coculture fibroblast: Hs27A | 0.878 | 0.8277 | 0.785 | 0.751 | 0.708 | 0.703 | 0.67 | 0.663 | 0.619
10 µM, coculture fibroblast: Hs343T | 0.931 | 0.83 | 0.763 | 0.728 | 0.644 | 0.613 | 0.559 | 0.522 | 0.505
10 µM, coculture fibroblast: WS1 | 0.82961 | 0.745 | 0.704 | 0.615 | 0.55 | 0.528 | 0.501 | 0.492 | 0.48321
100 µM, coculture fibroblast: C12385 | 0.812 | 0.766 | 0.732 | 0.665 | 0.59387 | 0.549 | 0.5212 | 0.5018 | 0.492
100 µM, coculture fibroblast: H6013 | 0.899 | 0.903 | 0.875 | 0.865 | 0.812 | 0.7764 | 0.71 | 0.686 | 0.643
100 µM, coculture fibroblast: H6019 | 0.781 | 0.739 | 0.754 | 0.693 | 0.669 | 0.657 | 0.651 | 0.663 | 0.659
100 µM, coculture fibroblast: H6076 | 0.911 | 0.856 | 0.841 | 0.8187 | 0.751 | 0.714 | 0.658 | 0.626 | 0.626
100 µM, coculture fibroblast: H6231 | 0.8812 | 0.815 | 0.7898 | 0.7462 | 0.67 | 0.63444 | 0.584 | 0.564 | 0.551
100 µM, coculture fibroblast: HADF | 0.949 | 0.872 | 0.927 | 0.908 | 0.864 | 0.836 | 0.789 | 0.767 | 0.742
100 µM, coculture fibroblast: HCFa | 0.8761 | 0.8656 | 0.833 | 0.774 | 0.717 | 0.716 | 0.696 | 0.69 | 0.651
100 µM, coculture fibroblast: HCPF | 0.9087 | 0.867 | 0.857 | 0.821 | 0.748 | 0.716 | 0.694 | 0.646 | 0.644
100 µM, coculture fibroblast: HHSteC | 0.898 | 0.883 | 0.8568 | 0.818 | 0.753 | 0.72 | 0.692 | 0.67 | 0.638
100 µM, coculture fibroblast: HMF | 0.8902 | 0.822 | 0.789 | 0.769 | 0.7 | 0.657 | 0.62 | 0.589 | 0.572
100 µM, coculture fibroblast: HPFa | 0.92 | 0.8901 | 0.855 | 0.7973 | 0.744 | 0.698 | 0.659 | 0.644 | 0.609
100 µM, coculture fibroblast: HUF | 0.825 | 0.73 | 0.741 | 0.668 | 0.626 | 0.591 | 0.558 | 0.556 | 0.553
100 µM, coculture fibroblast: Hs27A | 0.92 | 0.911 | 0.901 | 0.865 | 0.79 | 0.777 | 0.739 | 0.733 | 0.695
100 µM, coculture fibroblast: Hs343T | 0.959 | 0.872 | 0.8422 | 0.812 | 0.706 | 0.657 | 0.618 | 0.579 | 0.573
100 µM, coculture fibroblast: WS1 | 0.793 | 0.732 | 0.697 | 0.618 | 0.556 | 0.539 | 0.521 | 0.516 | 0.515
